Laboratory results taken from publication PMC8745574.

Amino acid sequences for entries named in this document (tags omitted). A change or cut given only in a name is not applied to a line headed by its entry.
UniProt Q84J78: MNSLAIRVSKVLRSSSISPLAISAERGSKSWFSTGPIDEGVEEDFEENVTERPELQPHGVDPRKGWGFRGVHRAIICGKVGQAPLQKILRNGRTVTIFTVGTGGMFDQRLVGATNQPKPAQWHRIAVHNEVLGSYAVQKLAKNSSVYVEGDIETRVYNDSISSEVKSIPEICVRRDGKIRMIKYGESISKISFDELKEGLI
UniProt Q9LXU1: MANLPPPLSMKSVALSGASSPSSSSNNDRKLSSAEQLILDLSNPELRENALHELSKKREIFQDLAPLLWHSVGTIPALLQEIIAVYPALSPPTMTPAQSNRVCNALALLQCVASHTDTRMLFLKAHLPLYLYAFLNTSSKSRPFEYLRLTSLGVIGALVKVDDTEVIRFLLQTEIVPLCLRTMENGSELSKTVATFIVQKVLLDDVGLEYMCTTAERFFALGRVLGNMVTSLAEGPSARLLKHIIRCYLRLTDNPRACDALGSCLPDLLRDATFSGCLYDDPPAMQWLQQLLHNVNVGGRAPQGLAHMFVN
UniProt Q9FMT4: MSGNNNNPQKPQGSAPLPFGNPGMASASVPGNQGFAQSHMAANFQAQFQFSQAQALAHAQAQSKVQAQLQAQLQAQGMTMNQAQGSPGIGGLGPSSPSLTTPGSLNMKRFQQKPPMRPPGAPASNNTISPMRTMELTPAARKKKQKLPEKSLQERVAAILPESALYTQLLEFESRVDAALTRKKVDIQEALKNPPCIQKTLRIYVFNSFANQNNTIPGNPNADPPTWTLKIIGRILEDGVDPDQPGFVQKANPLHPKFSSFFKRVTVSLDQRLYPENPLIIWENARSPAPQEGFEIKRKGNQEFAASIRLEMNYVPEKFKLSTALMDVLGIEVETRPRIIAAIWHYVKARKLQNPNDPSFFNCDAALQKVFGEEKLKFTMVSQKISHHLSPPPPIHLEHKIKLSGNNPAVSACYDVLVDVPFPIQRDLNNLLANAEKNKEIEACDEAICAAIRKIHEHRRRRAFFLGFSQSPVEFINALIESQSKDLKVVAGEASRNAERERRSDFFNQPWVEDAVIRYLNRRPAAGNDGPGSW
UniProt Q9LF51: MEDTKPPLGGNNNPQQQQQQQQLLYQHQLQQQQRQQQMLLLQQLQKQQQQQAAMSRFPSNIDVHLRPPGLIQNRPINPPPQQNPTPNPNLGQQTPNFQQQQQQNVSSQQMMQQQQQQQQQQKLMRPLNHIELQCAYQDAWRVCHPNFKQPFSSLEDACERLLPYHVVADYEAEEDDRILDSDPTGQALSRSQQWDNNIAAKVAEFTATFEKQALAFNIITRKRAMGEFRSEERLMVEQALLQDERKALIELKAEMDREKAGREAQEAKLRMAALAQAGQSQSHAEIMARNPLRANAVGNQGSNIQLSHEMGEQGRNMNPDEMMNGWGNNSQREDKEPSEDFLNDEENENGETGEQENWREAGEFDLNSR

What was measured:
[1] = biological target: T1, AtTERT TEN construct (1-233 aa) (Arabidopsis thaliana) (UniProt Q9SPU7); assay: two-hybrid; Matchmaker GAL4 system, pGADT7-DEST/pGBKT7-DEST, S. cerevisiae PJ69-4α, 30 °C; growth on -LWH plates (with increasing 3-aminotriazol) and -LWHAde plates
T1 sequence: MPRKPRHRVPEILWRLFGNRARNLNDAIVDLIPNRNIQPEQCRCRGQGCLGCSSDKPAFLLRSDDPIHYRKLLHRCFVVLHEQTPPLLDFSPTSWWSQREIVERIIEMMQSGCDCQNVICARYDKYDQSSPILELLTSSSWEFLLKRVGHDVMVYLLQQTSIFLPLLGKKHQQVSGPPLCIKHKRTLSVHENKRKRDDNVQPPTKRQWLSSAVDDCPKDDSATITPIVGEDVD

[2] = biological target: T2, POT1a (Arabidopsis thaliana) (UniProt Q56Y52); assay: as above
T2 sequence: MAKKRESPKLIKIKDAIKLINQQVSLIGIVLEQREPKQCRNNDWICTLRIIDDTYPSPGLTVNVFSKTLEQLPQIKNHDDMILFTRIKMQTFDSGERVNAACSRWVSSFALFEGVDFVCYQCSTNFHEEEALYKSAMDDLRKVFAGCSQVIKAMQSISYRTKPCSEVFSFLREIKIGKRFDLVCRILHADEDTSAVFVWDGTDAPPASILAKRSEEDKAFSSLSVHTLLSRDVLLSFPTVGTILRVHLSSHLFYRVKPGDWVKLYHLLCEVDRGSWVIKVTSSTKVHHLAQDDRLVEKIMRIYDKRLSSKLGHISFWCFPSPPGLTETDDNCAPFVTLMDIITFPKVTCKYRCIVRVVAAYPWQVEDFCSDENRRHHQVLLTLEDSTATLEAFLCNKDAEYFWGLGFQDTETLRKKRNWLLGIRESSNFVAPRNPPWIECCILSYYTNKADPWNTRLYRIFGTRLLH

[3] = biological target: T3, AtTERT RID construct (1-271 aa) (Arabidopsis thaliana) (UniProt Q9SPU7); assay: as above
T3 sequence: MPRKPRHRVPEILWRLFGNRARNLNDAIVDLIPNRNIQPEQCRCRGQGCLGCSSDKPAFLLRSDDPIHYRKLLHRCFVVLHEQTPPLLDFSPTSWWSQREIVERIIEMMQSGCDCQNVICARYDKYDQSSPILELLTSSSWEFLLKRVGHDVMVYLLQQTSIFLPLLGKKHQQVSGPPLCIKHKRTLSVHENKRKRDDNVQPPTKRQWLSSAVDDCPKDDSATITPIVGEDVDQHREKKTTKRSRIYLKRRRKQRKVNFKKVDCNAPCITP

[4] = biological target: T4, cYFP-POT1a (N. benthamiana) (Arabidopsis thaliana) (UniProt Q56Y52); assay: split reporter; BiFC, nYFP/cYFP constructs (pE-SPYNE-GW, pE-SPYCE-GW, pC-SPYNE-GW) transiently expressed in N. benthamiana leaves, confocal microscopy after 3 days
T4 sequence: T2 sequence

[5] = biological target: T5, actin-related protein 4 (ARP4) (Arabidopsis thaliana) (UniProt Q84M92); assay: two-hybrid; Matchmaker GAL4 system, pGADT7-DEST/pGBKT7-DEST, S. cerevisiae PJ69-4α, 30 °C; growth on -LWH plates (with increasing 3-aminotriazol) and -LWHAde plates
T5 sequence: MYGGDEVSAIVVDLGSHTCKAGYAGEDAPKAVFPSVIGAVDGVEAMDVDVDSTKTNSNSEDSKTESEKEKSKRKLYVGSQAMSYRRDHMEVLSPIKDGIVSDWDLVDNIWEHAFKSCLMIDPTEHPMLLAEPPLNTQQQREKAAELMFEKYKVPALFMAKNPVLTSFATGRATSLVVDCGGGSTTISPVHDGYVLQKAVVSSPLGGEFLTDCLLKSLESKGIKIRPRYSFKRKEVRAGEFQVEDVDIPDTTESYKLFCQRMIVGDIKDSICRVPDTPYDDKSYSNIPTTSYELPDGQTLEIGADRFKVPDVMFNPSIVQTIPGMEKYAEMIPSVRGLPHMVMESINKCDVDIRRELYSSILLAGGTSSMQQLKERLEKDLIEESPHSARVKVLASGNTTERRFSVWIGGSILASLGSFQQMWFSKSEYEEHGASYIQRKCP

[6] = biological target: T6, high-mobility-group B4 (HMGB4) protein (Arabidopsis thaliana) (UniProt Q42344); assay: as above
T6 sequence: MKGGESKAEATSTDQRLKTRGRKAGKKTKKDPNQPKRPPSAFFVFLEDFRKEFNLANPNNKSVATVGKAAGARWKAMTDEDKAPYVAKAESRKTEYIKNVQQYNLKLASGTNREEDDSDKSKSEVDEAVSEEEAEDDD

[7] = biological target: T7, NRP1 (Arabidopsis thaliana) (UniProt Q9CA59); assay: as above
T7 sequence: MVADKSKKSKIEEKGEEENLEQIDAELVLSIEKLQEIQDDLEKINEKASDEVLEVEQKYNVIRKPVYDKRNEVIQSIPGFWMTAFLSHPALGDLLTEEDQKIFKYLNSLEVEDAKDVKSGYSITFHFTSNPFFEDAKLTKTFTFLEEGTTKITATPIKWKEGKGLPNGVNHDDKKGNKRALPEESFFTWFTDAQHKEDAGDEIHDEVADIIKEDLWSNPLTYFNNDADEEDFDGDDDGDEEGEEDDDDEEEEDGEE

[8] = biological target: T8, NRP2 (Arabidopsis thaliana) (UniProt Q8LC68); assay: as above
T8 sequence: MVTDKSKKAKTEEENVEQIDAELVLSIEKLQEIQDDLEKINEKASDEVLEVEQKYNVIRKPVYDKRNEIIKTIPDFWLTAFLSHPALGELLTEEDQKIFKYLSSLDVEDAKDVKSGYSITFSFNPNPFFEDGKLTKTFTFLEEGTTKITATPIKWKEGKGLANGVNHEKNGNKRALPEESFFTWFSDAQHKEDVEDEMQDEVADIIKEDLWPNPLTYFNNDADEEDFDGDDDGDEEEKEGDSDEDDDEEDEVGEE

[9] = biological target: T9, cYFP-RID (Arabidopsis protoplasts) (Arabidopsis thaliana) (UniProt Q9SPU7); assay: split reporter; BiFC, pSAT1-nEYFP-C1/pSAT1-cEYFP-C1-B constructs in Arabidopsis protoplasts, confocal microscopy 16 h after transfection
T9 sequence: T3 sequence

[10] = biological target: c-myc-tagged MtGP1, in vitro translated (Arabidopsis thaliana) (UniProt Q9LZM6); assay: co-IP; both proteins translated in vitro in rabbit reticulocyte lysate; 35S-Met labelled prey mixed with c-myc- or HA-tagged bait in 25 mM HEPES pH 7.5, 150 mM KCl, 5 mM MgCl2, 0.1% Nonidet P-40; anti-c-myc or anti-HA magnetic beads
[11] = biological target: DOMINO1 (Arabidopsis thaliana); assay: two-hybrid; Matchmaker GAL4 system, pGADT7-DEST/pGBKT7-DEST, S. cerevisiae PJ69-4α, 30 °C; growth on -LWH plates (with increasing 3-aminotriazol) and -LWHAde plates
[12] = biological target: HA-tagged DOMINO1, in vitro translated (Arabidopsis thaliana); assay: co-IP; both proteins translated in vitro in rabbit reticulocyte lysate; 35S-Met labelled prey mixed with c-myc- or HA-tagged bait in 25 mM HEPES pH 7.5, 150 mM KCl, 5 mM MgCl2, 0.1% Nonidet P-40; anti-c-myc or anti-HA magnetic beads
[13] = biological target: nYFP-DOMINO1 (Arabidopsis thaliana); assay: split reporter; BiFC, pSAT1-nEYFP-C1/pSAT1-cEYFP-C1-B constructs in Arabidopsis protoplasts, confocal microscopy 16 h after transfection

## AT3G12210 protein (Arabidopsis thaliana)
[1]
  binding: binds
[2]
  binding: binds

## DEAH2 (Arabidopsis thaliana)
[2]
  binding: no binding

## DOMINO1 (Arabidopsis thaliana)
[3]
  binding: binds weakly
[1]
  binding: binds weakly
[2]
  binding: binds

## MTSSB (mitochondrially targeted single-stranded DNA binding) (from UniProt Q84J78)
[2]
  binding: binds

## MtSSB-nYFP (Arabidopsis thaliana)
[4]
  binding: binds

## NOP56-like protein (NOP56L) (Arabidopsis thaliana)
[3]
  binding: no binding

## NOP58-like protein (NOP58L) (Arabidopsis thaliana)
[3]
  binding: no binding

## OB-fold-like protein AT2G40660 (Arabidopsis thaliana)
[2]
  binding: no binding

## Rcd1-like protein AT5G12980 (from UniProt Q9LXU1)
[1]
  binding: binds weakly
[2]
  binding: binds weakly

## SSB1 (single-stranded DNA binding 1) (Arabidopsis thaliana)
[2]
  binding: binds

## chromodomain remodeling complex protein 1 (CHC1) (from UniProt Q9FMT4)
[3]
  binding: binds weakly
[5]
  binding: binds
[1]
  binding: binds
[6]
  binding: no binding
[2]
  binding: binds weakly

## histone1-like protein HON4 (Arabidopsis thaliana)
[5]
  binding: no binding
[7]
  binding: binds
[6]
  binding: no binding
[2]
  binding: no binding
[8]
  binding: binds

## hypersensitive induced reaction protein HIRP2 (Arabidopsis thaliana)
[1]
  binding: binds
[2]
  binding: binds

## hypersensitive induced reaction protein HIRP4 (Arabidopsis thaliana)
[1]
  binding: binds
[2]
  binding: binds

## mediator of RNA polymerase II transcription subunit-like protein AT3G03460 (from UniProt Q9SRQ0)
[2]
  binding: binds

## mediator of RNA polymerase II transcription subunit-like protein AT5G17510 (from UniProt Q9LF51)
[2]
  binding: binds

## nYFP-HIRP2 (Arabidopsis thaliana)
[9]
  binding: binds

## putative DNA helicase AT2G03270 (Arabidopsis thaliana)
[2]
  binding: no binding

B1: RID, radioactively labelled, in vitro translated (domain or fragment, UniProt Q9SPU7 1-271)
chain: T3 sequence
modifications: 35S-Met labelled
[10]
  binding: binds

B2: LSm4 (LIKE Sm 4) (protein, UniProt F4K4E3 1-129)
chain: MLPLSLLKTAQGHPMLVELKNGETYNGHLVNCDTWMNIHLREVICTSKDGDRFWRMPECYIRGNTIKYLRVPDEVIDKVQEEKTRTDRKPPGVGRGRGRGVDDGGARGRGRGTSMGKMGGNRGAGRGRG
[11]
  binding: binds

B3: FIB2 (protein, UniProt Q94AH9 1-320)
chain: MRPPLTGSGGGFSGGRGRGGYSGGRGDGGFSGGRGGGGRGGGRGFSDRGGRGRGRGPPRGGARGGRGPAGRGGMKGGSKVIVEPHRHAGVFIAKGKEDALVTKNLVPGEAVYNEKRISVQNEDGTKTEYRVWNPFRSKLAAAILGGVDNIWIKPGAKVLYLGAASGTTVSHVSDLVGPEGCVYAVEFSHRSGRDLVNMAKKRTNVIPIIEDARHPAKYRMLVGMVDVIFSDVAQPDQARILALNASYFLKSGGHFVISIKANCIDSTVPAEAVFQTEVKKLQQEQFKPAEQVTLEPFERDHACVVGGYRMPKKPKAATAA
[11]
  binding: binds weakly

B4: LSm4, radioactively labelled, in vitro translated (protein, UniProt F4K4E3 1-129)
chain: B2 chain
modifications: 35S-Met labelled
[12]
  binding: no binding

B5: LSm4 BiFC construct (protoplasts) (protein, UniProt F4K4E3 1-129)
chain: B2 chain
[13]
  binding: no binding

Results are given in words; binding and its absence hold for the method and conditions named. For some of these results: Binding can be weak; no strength is given. For some of these results: Binding seen in cells or lysates may run through a third protein. For some of these results: Tags and fused reporters may be left off the sequences shown.
